{"source": "paper PMC10565642", "target": "FLAG-tagged NLRP1ΔPYDΔCARD (human)", "experiment": "co-IP; HEK293T cells transfected with FLAG-tagged NLRP1 constructs; lysis in 50 mM Tris-HCl, 150 mM NaCl, 1% NP40; 1 mg lysate with ANTI-FLAG M2 resin, 2 h at 4°C", "note": "These are yes or no findings as the source states them, for the method shown. In cells and extracts the contact can be indirect. Binding can be weak; no strength is given.", "data": [{"binder": "LRRFIP1 in HEK293 cells (protein, UniProt Q32MZ4 1-808) MTSPAAAQSREIDCLSPEAQKLAEARLAAKRAARAEAREIRMKELERQQKEEDSERYSRRSRRNTSASDEDERMSVGSRGSLRVEERPEKDFTEKGSRNMPGLSAATLASLGGTSSRRGSGDTSISIDTEASIREIKELNELKDQIQDVEGKYMQGLKEMKDSLAEVEEKYKKAMVSNAQLDNEKTNFMYQVDTLKDMLLELEEQLAESRRQYEEKNKEFEREKHAHSILQFQFAEVKEALKQREEMLEKHGIILNSEIATNGETSDTLNNVGYQGPTKMTKEELNALKSTGDGTLGRASEVEVKNEIVANVGKREILHNTEKEQHTEDTVKDCVDIEVFPAGENTEDQKSSEDTAPFLGTLAGATYEEQVQSQILESSSLPENTVQVESNEVMGAPDDRTRTPLEPSNCWSDLDGGNHTENVGEAAVTQVEEQAGTVASCPLGHSDDTVYHDDKCMVEVPQELETSTGHSLEKEFTNQEAAEPKEVPAHSTEVGRDHNEEEGEETGLRDEKPIKTEVPGSPAGTEGNCQEATGPSTVDTQNEPLDMKEPDEEKSDQQGEALDSSQKKTKNKKKKNKKKKSPVPVETLKDVKKELTYQNTDLSEIKEEEQVKSTDRKSAVEAQNEVTENPKQKIAAESSENVDCPENPKIKLDGKLDQEGDDVQTAAEEVLADGDTLDFEDDTVQSSGPRAGGEELDEGVAKDNAKIDGATQSSPAEPKSEDADRCTLPEHESPSQDISDACEAESTERCEMSEHPSQTVRKALDSNSLENDDLSAPGREPGHFNPESREDTRGGNEKGKSKEDCTMS", "values": [{"measurement": "binding", "value": "binds"}]}]}
